The values that follow come from article PMC9288479.

The chains behind the UniProt entries cited, without tags or fusion partners. Where a name states a change or a piece, a line headed by the entry shows the natural chain unless it says otherwise. Residues count along the entry.
UniProt O00308: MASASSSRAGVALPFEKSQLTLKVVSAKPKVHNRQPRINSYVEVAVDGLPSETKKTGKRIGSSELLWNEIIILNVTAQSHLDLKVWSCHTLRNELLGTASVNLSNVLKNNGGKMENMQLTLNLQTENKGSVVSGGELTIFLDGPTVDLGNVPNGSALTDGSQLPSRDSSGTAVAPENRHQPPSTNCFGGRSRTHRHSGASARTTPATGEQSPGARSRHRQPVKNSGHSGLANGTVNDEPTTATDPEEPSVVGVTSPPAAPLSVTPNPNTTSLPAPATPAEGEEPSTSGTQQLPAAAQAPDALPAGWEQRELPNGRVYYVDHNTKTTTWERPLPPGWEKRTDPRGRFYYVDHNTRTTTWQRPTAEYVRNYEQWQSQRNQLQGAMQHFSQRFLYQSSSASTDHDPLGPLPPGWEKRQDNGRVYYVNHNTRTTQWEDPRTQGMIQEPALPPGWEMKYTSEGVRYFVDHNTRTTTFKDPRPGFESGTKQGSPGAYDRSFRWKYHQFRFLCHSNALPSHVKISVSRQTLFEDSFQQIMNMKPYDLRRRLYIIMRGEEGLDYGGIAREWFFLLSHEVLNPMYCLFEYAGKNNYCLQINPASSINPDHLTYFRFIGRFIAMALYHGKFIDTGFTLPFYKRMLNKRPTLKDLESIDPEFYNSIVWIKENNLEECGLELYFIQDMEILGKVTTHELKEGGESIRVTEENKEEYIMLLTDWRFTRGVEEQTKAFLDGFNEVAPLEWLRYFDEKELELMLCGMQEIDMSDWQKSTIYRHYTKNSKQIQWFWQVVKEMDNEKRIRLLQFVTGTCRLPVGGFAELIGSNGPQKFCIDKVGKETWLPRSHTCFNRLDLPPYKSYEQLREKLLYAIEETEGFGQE
UniProt P36894, residues 24-532: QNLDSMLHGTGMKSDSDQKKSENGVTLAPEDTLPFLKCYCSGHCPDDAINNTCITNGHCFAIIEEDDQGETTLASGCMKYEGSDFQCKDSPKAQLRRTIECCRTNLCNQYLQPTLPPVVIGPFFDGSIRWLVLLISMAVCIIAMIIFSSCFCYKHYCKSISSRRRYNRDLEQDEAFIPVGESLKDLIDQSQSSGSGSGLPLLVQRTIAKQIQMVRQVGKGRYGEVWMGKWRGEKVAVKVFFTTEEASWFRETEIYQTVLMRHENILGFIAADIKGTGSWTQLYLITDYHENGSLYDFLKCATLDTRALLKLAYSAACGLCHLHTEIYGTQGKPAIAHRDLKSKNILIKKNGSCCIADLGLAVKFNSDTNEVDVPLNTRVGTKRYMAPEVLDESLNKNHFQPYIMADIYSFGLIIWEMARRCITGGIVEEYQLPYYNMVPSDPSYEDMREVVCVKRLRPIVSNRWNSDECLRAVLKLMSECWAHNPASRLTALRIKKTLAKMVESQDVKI
UniProt Q9DBH0: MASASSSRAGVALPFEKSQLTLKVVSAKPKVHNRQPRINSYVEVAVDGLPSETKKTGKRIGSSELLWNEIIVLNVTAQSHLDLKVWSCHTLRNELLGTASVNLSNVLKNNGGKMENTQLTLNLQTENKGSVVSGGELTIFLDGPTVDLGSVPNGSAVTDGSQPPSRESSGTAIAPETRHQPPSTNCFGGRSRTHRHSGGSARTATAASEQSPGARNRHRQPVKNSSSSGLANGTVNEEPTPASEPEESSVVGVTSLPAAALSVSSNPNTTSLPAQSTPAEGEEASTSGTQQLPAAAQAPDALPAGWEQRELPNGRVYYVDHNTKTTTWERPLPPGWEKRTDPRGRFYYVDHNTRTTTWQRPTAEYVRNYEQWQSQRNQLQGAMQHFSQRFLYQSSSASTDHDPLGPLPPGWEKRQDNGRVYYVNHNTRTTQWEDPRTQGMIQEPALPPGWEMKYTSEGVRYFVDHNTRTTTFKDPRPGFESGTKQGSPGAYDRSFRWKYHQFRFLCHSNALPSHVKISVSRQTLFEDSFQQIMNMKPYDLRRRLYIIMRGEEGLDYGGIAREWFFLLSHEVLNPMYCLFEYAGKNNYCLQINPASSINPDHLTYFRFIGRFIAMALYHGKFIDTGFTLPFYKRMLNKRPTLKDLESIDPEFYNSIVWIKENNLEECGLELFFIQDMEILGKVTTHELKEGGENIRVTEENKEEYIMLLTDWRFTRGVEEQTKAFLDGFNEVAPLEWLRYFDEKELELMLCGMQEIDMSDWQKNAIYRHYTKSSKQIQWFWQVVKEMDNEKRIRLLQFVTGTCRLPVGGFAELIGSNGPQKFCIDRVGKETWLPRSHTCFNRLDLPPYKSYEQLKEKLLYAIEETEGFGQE

No constants are given. Whether binding was seen depends on the method and setting. Binding seen in cells or lysates may run through a third protein. Some entries that bind do so weakly or less than the wild type. Sequences can lack the tags named with a protein.

In assay [1] the target is T1, Flag-tagged human lysosomal protein transmembrane 5 (LAPTM5) (human) (UniProt Q13571).
T1 sequence: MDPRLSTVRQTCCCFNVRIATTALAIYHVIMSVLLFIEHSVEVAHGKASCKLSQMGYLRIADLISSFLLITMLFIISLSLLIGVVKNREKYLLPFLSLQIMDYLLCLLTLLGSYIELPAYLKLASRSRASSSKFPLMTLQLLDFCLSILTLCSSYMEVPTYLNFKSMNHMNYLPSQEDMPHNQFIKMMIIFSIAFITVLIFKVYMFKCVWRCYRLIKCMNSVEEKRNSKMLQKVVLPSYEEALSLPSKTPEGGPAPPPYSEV
In words: co-IP; IP and immunoblot of 786-O cells transfected with Flag-LAPTM5 and vector, Myc-tagged full-length WWP2 or deletion mutants. (In general: In western blotting, separated proteins are transferred to a membrane and probed.)

Assay [2] has as its target T2, LAPTM5 in 4T1^luci cells (not stated (murine 4T1 cells; human and mouse cDNA cloned)) (UniProt Q61168).
T2 sequence: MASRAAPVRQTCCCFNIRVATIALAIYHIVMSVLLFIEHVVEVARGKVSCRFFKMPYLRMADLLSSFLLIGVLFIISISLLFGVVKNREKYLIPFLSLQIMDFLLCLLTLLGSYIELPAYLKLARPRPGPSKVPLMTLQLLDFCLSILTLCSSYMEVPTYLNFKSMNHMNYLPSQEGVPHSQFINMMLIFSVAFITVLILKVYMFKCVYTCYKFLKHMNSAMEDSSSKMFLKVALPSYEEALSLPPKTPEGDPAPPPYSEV
In words: co-IP; immunoprecipitation in 4T1^luci cells, with or without BMP4.

Assay [3] has as its target T3, Flag-tagged murine LAPTM5 (Laptm5) (mouse) (UniProt Q61168).
T3 sequence: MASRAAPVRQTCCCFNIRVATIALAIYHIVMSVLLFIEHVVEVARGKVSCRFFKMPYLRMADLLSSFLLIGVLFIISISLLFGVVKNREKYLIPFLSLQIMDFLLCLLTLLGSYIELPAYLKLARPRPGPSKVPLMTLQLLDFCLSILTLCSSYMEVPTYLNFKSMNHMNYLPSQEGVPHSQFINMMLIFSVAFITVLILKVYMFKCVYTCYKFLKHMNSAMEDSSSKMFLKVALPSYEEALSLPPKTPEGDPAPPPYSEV
In words: co-IP; IP from lysates of LAPTM5-overexpressing 786-O or Renca cells, with or without BMP4; Protein G magnetic beads, IgG control, immunoblot.

Assay [4] deals with HA-tagged full-length human WWP2 (human) (UniProt O00308). The assay can be described thus: co-IP; serial IP: anti-Myc (first round) then anti-HA (second round) from 293T cells transfected with Flag-LAPTM5, HA-WWP2 and Myc-BMPR1A; immunoblot.
Assay [5] has as its target Myc-tagged human BMP receptor 1A (BMPR1A) (human) (UniProt P36894). The assay is described as above.
The target is the same in assay [6]. The assay can be described thus: co-IP; 786-O cells transfected with Myc-BMPR1A and Flag-LAPTM5 or HA-WWP2 (or all three), with or without BMP4; IP and immunoblot.

For “Myc-tagged WWP2 deletion mutant 407–868 (from UniProt O00308 407-868) (domain or fragment)”, the binding result in assay [1] was “binds”.

For “WWP2 in 4T1^luci cells (from UniProt Q9DBH0 1-870) (enzyme)”, the binding result in assay [2] was “binds”.

For the molecule “WWP2, endogenous in Renca cells (from UniProt Q9DBH0 1-870) (enzyme)”, the binding entry in assay [3] is reported as “binds”.

B1: Flag-tagged human lysosomal protein transmembrane 5 (LAPTM5) (protein, UniProt Q13571 1-262)
chain: MDPRLSTVRQTCCCFNVRIATTALAIYHVIMSVLLFIEHSVEVAHGKASCKLSQMGYLRIADLISSFLLITMLFIISLSLLIGVVKNREKYLLPFLSLQIMDYLLCLLTLLGSYIELPAYLKLASRSRASSSKFPLMTLQLLDFCLSILTLCSSYMEVPTYLNFKSMNHMNYLPSQEDMPHNQFIKMMIIFSIAFITVLIFKVYMFKCVWRCYRLIKCMNSVEEKRNSKMLQKVVLPSYEEALSLPSKTPEGGPAPPPYSEV
With B1, the binding entry in assay [4], in assay [5] and in assay [6] was “binds” each time.
